Data: the supplement of paper PMC6078165

Test system: MDAMB468
Experiment: relative JC-1 red fluorescence (viability) vs pre-drug, coculture with fibroblast (fraction); higher = more viable cancer cells
Description: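 JC-1 labelled TNBC cells cocultured 1:1 (1,500 cells each) with CellTrace Violet stained primary or stromal fibroblasts in 384-well plates in FluoroBrite medium, treated with one of 42 anticancer drugs at 0.1, 1, 10 or 100 uM. JC-1 red fluorescence (mitochondrial integrity in cancer cells only) was read by plate reader every 8 h for 72 h. Values are normalised to each well's pre-drug value. The stock of one drug was tenfold lower, so its dose labels may be too high.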

O=NN(CCCl)C(=O)NC1CCCCC1 [Lomustine]
relative JC-1 red fluorescence
Conditions | 8 h | 16 h | 24 h | 32 h | 40 h | 48 h | 56 h | 64 h | 72 h
0.1 µM, coculture fibroblast: C12385 | 0.84 | 0.789 | 0.749 | 0.688 | 0.653 | 0.648 | 0.621 | 0.609 | 0.603
0.1 µM, coculture fibroblast: H6013 | 0.865 | 0.852 | 0.8 | 0.773 | 0.749 | 0.761 | 0.739 | 0.732 | 0.683
0.1 µM, coculture fibroblast: H6019 | 0.854 | 0.843 | 0.831 | 0.794 | 0.756 | 0.755 | 0.698 | 0.679 | 0.66
0.1 µM, coculture fibroblast: H6076 | 0.918 | 0.957 | 0.903 | 0.881 | 0.82 | 0.81 | 0.776 | 0.756 | 0.783
0.1 µM, coculture fibroblast: H6231 | 0.794 | 0.9262 | 0.848 | 0.818 | 0.769 | 0.735 | 0.685 | 0.662 | 0.652
0.1 µM, coculture fibroblast: HADF | 0.8721 | 0.856 | 0.785 | 0.77 | 0.724 | 0.724 | 0.682 | 0.677 | 0.642
0.1 µM, coculture fibroblast: HCFa | 0.873 | 0.8534 | 0.8 | 0.7634 | 0.7072 | 0.704 | 0.657 | 0.624 | 0.578
0.1 µM, coculture fibroblast: HCPF | 0.844 | 0.861 | 0.92 | 0.888 | 0.839 | 0.813 | 0.7525 | 0.73694 | 0.71
0.1 µM, coculture fibroblast: HHSteC | 0.891 | 0.876 | 0.838 | 0.799 | 0.774 | 0.779 | 0.73 | 0.714 | 0.668
0.1 µM, coculture fibroblast: HMF | 0.8209 | 0.958 | 0.91 | 0.881 | 0.833 | 0.819 | 0.768 | 0.755 | 0.741
0.1 µM, coculture fibroblast: HPFa | 0.942 | 0.896 | 0.8691 | 0.8168 | 0.8027 | 0.797 | 0.729 | 0.703 | 0.617
0.1 µM, coculture fibroblast: HUF | 0.863 | 0.7773 | 0.724 | 0.6533 | 0.611 | 0.596 | 0.559 | 0.543 | 0.528
0.1 µM, coculture fibroblast: Hs5 | 0.9922 | 0.967 | 0.923 | 0.89 | 0.813 | 0.771 | 0.729 | 0.693 | 0.703
0.1 µM, coculture fibroblast: Hs27A | 0.852 | 0.862 | 0.776 | 0.763 | 0.715 | 0.71 | 0.67 | 0.653 | 0.62
0.1 µM, coculture fibroblast: Hs343T | 0.865 | 0.913 | 0.89 | 0.87 | 0.8 | 0.787 | 0.75 | 0.739 | 0.73
0.1 µM, coculture fibroblast: WS1 | 0.851 | 0.7803 | 0.725 | 0.659 | 0.605 | 0.579 | 0.552 | 0.531 | 0.527
1 µM, coculture fibroblast: C12385 | 0.8914 | 0.824 | 0.754 | 0.691 | 0.649 | 0.629 | 0.593 | 0.565 | 0.562
1 µM, coculture fibroblast: H6013 | 0.878 | 0.814 | 0.788 | 0.78879 | 0.764 | 0.774 | 0.75 | 0.735 | 0.694
1 µM, coculture fibroblast: H6019 | 0.836 | 0.782 | 0.729 | 0.673 | 0.642 | 0.616 | 0.566 | 0.5302 | 0.5078
1 µM, coculture fibroblast: H6076 | 0.9207 | 0.9065 | 0.846 | 0.863 | 0.8021 | 0.789 | 0.758 | 0.735 | 0.779
1 µM, coculture fibroblast: H6231 | 0.818 | 0.921 | 0.8 | 0.789 | 0.722 | 0.696 | 0.634 | 0.615 | 0.608
1 µM, coculture fibroblast: HADF | 0.8758 | 0.785 | 0.7526 | 0.7283 | 0.662 | 0.649 | 0.603 | 0.582 | 0.547
1 µM, coculture fibroblast: HCFa | 0.851 | 0.798 | 0.74 | 0.706 | 0.627 | 0.61 | 0.559 | 0.523 | 0.482
1 µM, coculture fibroblast: HCPF | 0.8774 | 0.9206 | 0.8134 | 0.831 | 0.741 | 0.72 | 0.673 | 0.657 | 0.652
1 µM, coculture fibroblast: HHSteC | 0.8995 | 0.846 | 0.8231 | 0.7981 | 0.7518 | 0.756 | 0.6818 | 0.6573 | 0.61213
1 µM, coculture fibroblast: HMF | 0.856 | 0.948 | 0.852 | 0.828 | 0.757 | 0.731 | 0.6768 | 0.651 | 0.629
1 µM, coculture fibroblast: HPFa | 0.918 | 0.894 | 0.854 | 0.788 | 0.7428 | 0.7334 | 0.6752 | 0.6433 | 0.558
1 µM, coculture fibroblast: HUF | 0.9231 | 0.82564 | 0.776 | 0.707 | 0.6627 | 0.6366 | 0.5969 | 0.5815 | 0.565
1 µM, coculture fibroblast: Hs5 | 0.884 | 0.894 | 0.919 | 0.8854 | 0.808 | 0.758 | 0.709 | 0.661 | 0.667
1 µM, coculture fibroblast: Hs27A | 0.8431 | 0.767 | 0.731 | 0.728 | 0.657 | 0.65 | 0.608 | 0.581 | 0.54
1 µM, coculture fibroblast: Hs343T | 0.884 | 0.908 | 0.8398 | 0.8291 | 0.759 | 0.742 | 0.6897 | 0.6768 | 0.6696
1 µM, coculture fibroblast: WS1 | 0.89 | 0.797 | 0.7664 | 0.694 | 0.648 | 0.614 | 0.58036 | 0.5611 | 0.554
10 µM, coculture fibroblast: C12385 | 0.843 | 0.815 | 0.781 | 0.736 | 0.691 | 0.685 | 0.648 | 0.612 | 0.593
10 µM, coculture fibroblast: H6013 | 0.851 | 0.87 | 0.8394 | 0.844 | 0.841 | 0.861 | 0.841 | 0.842 | 0.789
10 µM, coculture fibroblast: H6019 | 0.852 | 0.806 | 0.761 | 0.714 | 0.677 | 0.67 | 0.627 | 0.607 | 0.59
10 µM, coculture fibroblast: H6076 | 0.899 | 0.92 | 0.891 | 0.896 | 0.823 | 0.822 | 0.803 | 0.802 | 0.849
10 µM, coculture fibroblast: H6231 | 0.7949 | 0.8921 | 0.822 | 0.827 | 0.763 | 0.738 | 0.683 | 0.657 | 0.651
10 µM, coculture fibroblast: HADF | 0.863 | 0.86 | 0.809 | 0.801 | 0.765 | 0.757 | 0.717 | 0.71 | 0.661
10 µM, coculture fibroblast: HCFa | 0.882 | 0.872 | 0.821 | 0.779 | 0.728 | 0.719 | 0.6727 | 0.6471 | 0.60636
10 µM, coculture fibroblast: HCPF | 0.838 | 0.927 | 0.865 | 0.88 | 0.804 | 0.7861 | 0.733 | 0.712 | 0.709
10 µM, coculture fibroblast: HHSteC | 0.889 | 0.873 | 0.846 | 0.818 | 0.798 | 0.797 | 0.743 | 0.735 | 0.68935
10 µM, coculture fibroblast: HMF | 0.8266 | 0.943 | 0.8879 | 0.873 | 0.808 | 0.791 | 0.729 | 0.718 | 0.689
10 µM, coculture fibroblast: HPFa | 0.92 | 0.914 | 0.878 | 0.8238 | 0.796 | 0.7926 | 0.73 | 0.703 | 0.618
10 µM, coculture fibroblast: HUF | 0.879 | 0.858 | 0.8335 | 0.771 | 0.744 | 0.732 | 0.697 | 0.689 | 0.682
10 µM, coculture fibroblast: Hs5 | 0.967 | 0.934 | 0.91 | 0.9064 | 0.844 | 0.823 | 0.805 | 0.7824 | 0.81
10 µM, coculture fibroblast: Hs27A | 0.851 | 0.855 | 0.794 | 0.778 | 0.722 | 0.724 | 0.68 | 0.651 | 0.61
10 µM, coculture fibroblast: Hs343T | 0.868 | 0.936 | 0.904 | 0.8994 | 0.8176 | 0.802 | 0.766 | 0.75 | 0.739
10 µM, coculture fibroblast: WS1 | 0.8483 | 0.8184 | 0.774 | 0.7272 | 0.692 | 0.672 | 0.643 | 0.6226 | 0.618
100 µM, coculture fibroblast: C12385 | 0.837 | 0.7883 | 0.746 | 0.701 | 0.6704 | 0.66749 | 0.621 | 0.592 | 0.572
100 µM, coculture fibroblast: H6013 | 0.843 | 0.733 | 0.668 | 0.646 | 0.656 | 0.669 | 0.646 | 0.645 | 0.588
100 µM, coculture fibroblast: H6019 | 0.816 | 0.728 | 0.68 | 0.632 | 0.613 | 0.615 | 0.587 | 0.571 | 0.56
100 µM, coculture fibroblast: H6076 | 0.878 | 0.727 | 0.6451 | 0.654 | 0.605 | 0.614 | 0.606 | 0.595 | 0.653
100 µM, coculture fibroblast: H6231 | 0.842 | 0.837 | 0.766 | 0.774 | 0.7212 | 0.707 | 0.658 | 0.634 | 0.624
100 µM, coculture fibroblast: HADF | 0.8951 | 0.8037 | 0.718 | 0.701 | 0.674 | 0.659 | 0.601 | 0.591 | 0.521
100 µM, coculture fibroblast: HCFa | 0.8492 | 0.7645 | 0.702 | 0.687 | 0.661 | 0.668 | 0.623 | 0.592 | 0.544
100 µM, coculture fibroblast: HCPF | 0.8693 | 0.8451 | 0.7648 | 0.7804 | 0.70962 | 0.691 | 0.649 | 0.623 | 0.606
100 µM, coculture fibroblast: HHSteC | 0.906 | 0.834 | 0.8013 | 0.7772 | 0.7541 | 0.7477 | 0.6908 | 0.6723 | 0.6265
100 µM, coculture fibroblast: HMF | 0.855 | 0.825 | 0.69 | 0.66 | 0.599 | 0.589 | 0.541 | 0.516 | 0.51
100 µM, coculture fibroblast: HPFa | 0.937 | 0.8225 | 0.787 | 0.742 | 0.739 | 0.732 | 0.6825 | 0.662 | 0.589
100 µM, coculture fibroblast: HUF | 0.894 | 0.746 | 0.681 | 0.622 | 0.586 | 0.57 | 0.525 | 0.509 | 0.494
100 µM, coculture fibroblast: Hs5 | 0.987 | 0.82 | 0.782 | 0.768 | 0.705 | 0.687 | 0.661 | 0.64 | 0.653
100 µM, coculture fibroblast: Hs27A | 0.863 | 0.8039 | 0.7349 | 0.752 | 0.711 | 0.708 | 0.679 | 0.662 | 0.614
100 µM, coculture fibroblast: Hs343T | 0.885 | 0.81 | 0.696 | 0.672 | 0.606 | 0.596 | 0.569 | 0.541 | 0.526
100 µM, coculture fibroblast: WS1 | 0.86 | 0.756 | 0.7 | 0.662 | 0.63 | 0.614 | 0.5862 | 0.557 | 0.5405

Values are relative to the signal before dosing, not to a vehicle control; the signal also falls without drug.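 Fibroblast labels denote human fibroblasts, mainly primary ones from uterus (C12385, HUF), lung (H6013), bone (Hs27A), adrenal (HADF) and skin (WS1), plus mammary HMF and breast cancer-associated Hs343T. Cancer cells are basal-like or mesenchymal-like triple-negative breast cancer lines. A hit is a response shift exceeding 3x replicate standard deviation. The tissue of the other fibroblasts is not given here.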
